Assay results reported in patent publication US20240299393A1, “SMALL MOLECULE DISRUPTORS OF PROTEIN INTERACTIONS IN HISTONE DEACETYLASE COMPLEXES” (Dana-Farber Cancer Institute, Inc., priority 2021, published 2024).
Some results were stated once for a whole list of compounds, not compound by compound. For at least one compound, name, drawing or mass did not settle the structure. Square brackets hold non-standard residues; d marks the D form. Peptide text beside a SMILES is read from it. ξ: configuration not given here. Aoe(9ξ) = N[C@@H](CCCCCC(=O)C1CO1)C(=O)O; dPip = O=C(O)[C@H]1CCCCN1

Test system: Rpd3-regulated genes (URS-URA3, INO1, IME2, CAR1, SPO13, TRK2)
Test: RT-qPCR of Rpd3-regulated genes in yeast
Assay type: cell-based, S. cerevisiae
Conditions: WT MaV208, FIG. 2K
Procedure: After yeast cells reached OD600 nm ˜0.5 in 0.8-1 mL of YPD, they were grown for two more hours at room temperature before being centrifuged to remove supernatant and freezing pellets on dry ice. For compound treatments, yeast cells at OD600 nm˜0.5 in YPD were incubated at room temperature for two hours with DMSO (1-1.6%) or the desired compound (from 25 mM stock in 100% DMSO) in an 2 mL-tube for a final volume of 0.8 mL in YPD, before being centrifuged, washed and frozen as described above. Yeast cells were then harvested for RNA extraction using a RiboPure RNA Purification Kit (Invitrogen, cat #AM1926), which involves mechanical cell wall disruption, phenol extraction of the lysate, and RNA purification using glass fiber, and filter-based RNA purification columns. RNA concentration was measured for individually purified RNA samples using a NanoDrop spectrophotometer. A total of 1 μg RNA from each sample was used for reverse transcription following a published procedure [Choi, S. G. et al 2012].
The RT-qPCR protocol used in this study was described elsewhere [Choi et al 2012]. Culture, RNA extraction, and compound treatments for neuroblastoma SK-N-BE(2)-C cells are described below. […] Quantitative PCR was conducted with a QuantStudio real-time PCR system from Applied Biosystems, with the following settings: 50° C./2 min, 95° C./10 min, 96° C./15 s/40 cycles, and 60° C./30 s. […]

O=C(CCCCC[C@@H]1NC(=O)[C@H]2CCCCN2C(=O)[C@H](Cc2ccccc2)NC(=O)[C@H](Cc2ccccc2)NC1=O)C1CO1 (stereo partly shown) [TRX, trapoxin A] (cyclo(FF[dPip][Aoe(9ξ)]))
increased expression of Rpd3-regulated genes: 1.5 to 9 fold
